According to the supplement of paper PMC7666118:
Some of the results follow.

Sequences of proteins named here, by UniProt entry; tags and fusion partners are left off. A change or cut given only in a name is not applied to a line headed by its entry.
UniProt P54577: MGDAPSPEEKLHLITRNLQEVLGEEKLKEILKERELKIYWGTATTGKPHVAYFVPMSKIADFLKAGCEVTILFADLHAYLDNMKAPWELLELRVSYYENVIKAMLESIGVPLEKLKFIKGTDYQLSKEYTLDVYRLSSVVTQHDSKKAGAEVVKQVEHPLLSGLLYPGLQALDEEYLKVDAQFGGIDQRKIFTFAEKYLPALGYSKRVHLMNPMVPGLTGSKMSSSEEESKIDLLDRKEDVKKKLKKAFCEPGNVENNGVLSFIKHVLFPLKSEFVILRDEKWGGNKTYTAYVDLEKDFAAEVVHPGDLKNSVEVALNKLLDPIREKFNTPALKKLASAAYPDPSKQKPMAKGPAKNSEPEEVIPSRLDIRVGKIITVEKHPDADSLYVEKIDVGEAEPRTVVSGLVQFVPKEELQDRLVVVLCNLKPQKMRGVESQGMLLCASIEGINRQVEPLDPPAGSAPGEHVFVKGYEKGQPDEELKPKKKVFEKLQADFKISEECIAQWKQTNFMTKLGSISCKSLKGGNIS
UniProt Q6ZN55: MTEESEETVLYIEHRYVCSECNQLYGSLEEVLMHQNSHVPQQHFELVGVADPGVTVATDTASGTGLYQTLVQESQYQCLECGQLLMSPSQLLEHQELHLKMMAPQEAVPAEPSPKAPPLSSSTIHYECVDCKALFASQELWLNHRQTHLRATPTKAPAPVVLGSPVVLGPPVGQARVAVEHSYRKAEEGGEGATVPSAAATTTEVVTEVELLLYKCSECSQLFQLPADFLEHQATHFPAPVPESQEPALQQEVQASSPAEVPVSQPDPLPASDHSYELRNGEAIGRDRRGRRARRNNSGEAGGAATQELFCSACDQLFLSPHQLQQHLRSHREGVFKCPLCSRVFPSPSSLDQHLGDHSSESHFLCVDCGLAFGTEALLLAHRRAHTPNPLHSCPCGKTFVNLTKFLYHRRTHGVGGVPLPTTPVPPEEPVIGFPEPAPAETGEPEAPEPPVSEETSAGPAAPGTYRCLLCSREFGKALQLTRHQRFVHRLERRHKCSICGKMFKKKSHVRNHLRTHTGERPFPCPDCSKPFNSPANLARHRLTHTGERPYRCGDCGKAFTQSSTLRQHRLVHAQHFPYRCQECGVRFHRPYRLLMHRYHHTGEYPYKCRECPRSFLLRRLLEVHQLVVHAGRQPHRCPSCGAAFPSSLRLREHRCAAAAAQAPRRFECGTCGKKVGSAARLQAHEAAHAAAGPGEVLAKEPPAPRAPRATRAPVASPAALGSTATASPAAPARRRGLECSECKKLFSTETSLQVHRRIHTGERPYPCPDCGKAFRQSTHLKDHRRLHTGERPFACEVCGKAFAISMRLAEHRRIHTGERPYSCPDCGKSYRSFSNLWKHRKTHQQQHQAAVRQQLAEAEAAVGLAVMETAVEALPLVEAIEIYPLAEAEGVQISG
UniProt Q5SVZ6: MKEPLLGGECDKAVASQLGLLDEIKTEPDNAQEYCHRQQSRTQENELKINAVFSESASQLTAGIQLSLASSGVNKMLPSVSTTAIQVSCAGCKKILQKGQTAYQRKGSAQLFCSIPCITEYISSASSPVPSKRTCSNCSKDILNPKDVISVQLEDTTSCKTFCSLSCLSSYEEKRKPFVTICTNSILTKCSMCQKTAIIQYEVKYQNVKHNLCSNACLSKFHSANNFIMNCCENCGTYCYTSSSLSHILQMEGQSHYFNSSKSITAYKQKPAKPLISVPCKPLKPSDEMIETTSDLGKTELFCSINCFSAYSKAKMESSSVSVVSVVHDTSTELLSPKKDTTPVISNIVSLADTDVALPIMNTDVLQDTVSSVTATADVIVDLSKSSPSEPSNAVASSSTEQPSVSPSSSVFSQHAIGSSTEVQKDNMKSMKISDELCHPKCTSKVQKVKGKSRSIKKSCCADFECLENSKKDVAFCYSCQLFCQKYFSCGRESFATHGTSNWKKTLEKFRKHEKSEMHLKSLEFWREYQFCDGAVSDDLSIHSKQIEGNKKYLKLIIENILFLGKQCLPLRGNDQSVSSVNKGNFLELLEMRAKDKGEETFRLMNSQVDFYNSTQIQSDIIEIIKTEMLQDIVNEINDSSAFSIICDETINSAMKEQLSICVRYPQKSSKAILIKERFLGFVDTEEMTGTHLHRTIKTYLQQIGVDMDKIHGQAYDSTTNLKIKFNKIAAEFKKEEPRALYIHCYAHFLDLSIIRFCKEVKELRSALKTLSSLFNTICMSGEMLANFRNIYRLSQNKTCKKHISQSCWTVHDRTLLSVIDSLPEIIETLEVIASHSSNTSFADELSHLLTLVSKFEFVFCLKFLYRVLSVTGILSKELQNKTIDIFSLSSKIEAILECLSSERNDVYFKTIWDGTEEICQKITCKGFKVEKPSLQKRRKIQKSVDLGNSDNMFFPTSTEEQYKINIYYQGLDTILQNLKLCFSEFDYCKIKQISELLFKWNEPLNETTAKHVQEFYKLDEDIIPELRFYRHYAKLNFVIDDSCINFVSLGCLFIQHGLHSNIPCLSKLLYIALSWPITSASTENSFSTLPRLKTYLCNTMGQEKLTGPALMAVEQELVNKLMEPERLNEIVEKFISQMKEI
UniProt Q15649: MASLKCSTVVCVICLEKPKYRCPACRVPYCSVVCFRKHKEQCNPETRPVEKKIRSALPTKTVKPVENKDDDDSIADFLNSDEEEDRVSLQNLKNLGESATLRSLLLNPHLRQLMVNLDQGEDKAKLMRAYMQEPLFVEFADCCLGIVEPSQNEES
UniProt Q969S3: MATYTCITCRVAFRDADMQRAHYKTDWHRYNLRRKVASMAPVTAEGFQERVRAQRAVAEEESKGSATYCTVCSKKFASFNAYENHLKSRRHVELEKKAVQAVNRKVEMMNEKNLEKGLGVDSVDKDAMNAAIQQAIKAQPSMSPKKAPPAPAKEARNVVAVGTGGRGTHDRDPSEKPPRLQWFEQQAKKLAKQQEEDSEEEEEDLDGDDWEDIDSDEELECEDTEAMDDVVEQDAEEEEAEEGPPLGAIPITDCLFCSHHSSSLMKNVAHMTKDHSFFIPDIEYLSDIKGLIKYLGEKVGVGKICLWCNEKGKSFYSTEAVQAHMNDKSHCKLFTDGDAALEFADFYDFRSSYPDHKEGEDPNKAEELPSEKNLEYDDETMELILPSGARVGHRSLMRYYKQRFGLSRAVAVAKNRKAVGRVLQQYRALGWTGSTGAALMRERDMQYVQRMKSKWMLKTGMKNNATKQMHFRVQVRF
UniProt Q8TF68: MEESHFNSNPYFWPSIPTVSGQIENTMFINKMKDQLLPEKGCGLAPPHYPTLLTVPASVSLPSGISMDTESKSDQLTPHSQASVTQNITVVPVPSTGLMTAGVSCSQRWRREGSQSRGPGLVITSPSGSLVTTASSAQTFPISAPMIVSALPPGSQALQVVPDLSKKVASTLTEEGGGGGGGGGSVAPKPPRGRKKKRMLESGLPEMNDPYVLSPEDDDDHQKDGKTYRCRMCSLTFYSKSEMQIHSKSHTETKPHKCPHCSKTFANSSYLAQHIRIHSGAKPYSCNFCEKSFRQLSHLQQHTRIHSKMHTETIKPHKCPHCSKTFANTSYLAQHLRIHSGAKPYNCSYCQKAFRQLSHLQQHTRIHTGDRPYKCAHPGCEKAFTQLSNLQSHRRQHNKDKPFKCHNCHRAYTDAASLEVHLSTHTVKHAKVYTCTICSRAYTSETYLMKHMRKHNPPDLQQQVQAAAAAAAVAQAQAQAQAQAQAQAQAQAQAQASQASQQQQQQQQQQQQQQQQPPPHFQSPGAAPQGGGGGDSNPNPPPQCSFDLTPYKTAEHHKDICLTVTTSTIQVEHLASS
UniProt Q7Z3T8: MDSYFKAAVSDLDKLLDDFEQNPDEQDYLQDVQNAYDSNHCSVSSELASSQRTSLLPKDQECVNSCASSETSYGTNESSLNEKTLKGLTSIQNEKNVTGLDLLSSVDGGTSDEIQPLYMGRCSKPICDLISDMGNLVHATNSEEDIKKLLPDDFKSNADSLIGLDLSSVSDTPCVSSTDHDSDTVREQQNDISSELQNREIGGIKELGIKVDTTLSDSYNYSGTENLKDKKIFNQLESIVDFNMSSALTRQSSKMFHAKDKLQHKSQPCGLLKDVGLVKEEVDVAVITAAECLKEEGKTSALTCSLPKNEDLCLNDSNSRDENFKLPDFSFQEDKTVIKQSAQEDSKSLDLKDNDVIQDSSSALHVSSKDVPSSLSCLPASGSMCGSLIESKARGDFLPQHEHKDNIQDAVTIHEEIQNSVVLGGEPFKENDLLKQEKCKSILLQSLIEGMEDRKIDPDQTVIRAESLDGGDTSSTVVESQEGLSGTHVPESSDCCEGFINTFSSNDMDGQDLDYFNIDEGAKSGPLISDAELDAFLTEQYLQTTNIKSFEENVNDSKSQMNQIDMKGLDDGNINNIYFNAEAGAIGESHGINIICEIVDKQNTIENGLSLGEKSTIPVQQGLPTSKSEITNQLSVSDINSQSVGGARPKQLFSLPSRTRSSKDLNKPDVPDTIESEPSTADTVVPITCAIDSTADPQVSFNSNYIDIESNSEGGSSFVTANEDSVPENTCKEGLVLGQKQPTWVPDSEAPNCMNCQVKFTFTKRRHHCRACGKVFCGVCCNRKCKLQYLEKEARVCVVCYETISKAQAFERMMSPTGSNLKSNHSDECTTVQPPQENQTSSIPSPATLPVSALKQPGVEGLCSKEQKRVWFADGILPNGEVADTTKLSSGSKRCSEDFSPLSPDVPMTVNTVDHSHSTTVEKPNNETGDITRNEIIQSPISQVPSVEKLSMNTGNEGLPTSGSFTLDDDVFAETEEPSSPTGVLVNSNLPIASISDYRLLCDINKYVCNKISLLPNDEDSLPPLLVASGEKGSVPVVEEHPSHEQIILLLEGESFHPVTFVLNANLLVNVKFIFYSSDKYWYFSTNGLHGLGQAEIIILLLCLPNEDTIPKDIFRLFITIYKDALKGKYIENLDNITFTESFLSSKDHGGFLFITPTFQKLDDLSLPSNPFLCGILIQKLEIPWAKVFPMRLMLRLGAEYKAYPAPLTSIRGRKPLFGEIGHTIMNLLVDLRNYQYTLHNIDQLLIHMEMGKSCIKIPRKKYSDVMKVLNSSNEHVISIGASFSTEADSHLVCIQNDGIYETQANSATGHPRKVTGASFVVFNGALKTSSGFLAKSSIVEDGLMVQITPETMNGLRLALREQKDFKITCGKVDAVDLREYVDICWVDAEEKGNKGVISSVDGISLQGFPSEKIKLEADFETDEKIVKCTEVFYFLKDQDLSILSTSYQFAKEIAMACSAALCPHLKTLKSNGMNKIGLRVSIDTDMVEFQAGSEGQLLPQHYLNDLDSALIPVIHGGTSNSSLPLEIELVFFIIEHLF
UniProt O95365: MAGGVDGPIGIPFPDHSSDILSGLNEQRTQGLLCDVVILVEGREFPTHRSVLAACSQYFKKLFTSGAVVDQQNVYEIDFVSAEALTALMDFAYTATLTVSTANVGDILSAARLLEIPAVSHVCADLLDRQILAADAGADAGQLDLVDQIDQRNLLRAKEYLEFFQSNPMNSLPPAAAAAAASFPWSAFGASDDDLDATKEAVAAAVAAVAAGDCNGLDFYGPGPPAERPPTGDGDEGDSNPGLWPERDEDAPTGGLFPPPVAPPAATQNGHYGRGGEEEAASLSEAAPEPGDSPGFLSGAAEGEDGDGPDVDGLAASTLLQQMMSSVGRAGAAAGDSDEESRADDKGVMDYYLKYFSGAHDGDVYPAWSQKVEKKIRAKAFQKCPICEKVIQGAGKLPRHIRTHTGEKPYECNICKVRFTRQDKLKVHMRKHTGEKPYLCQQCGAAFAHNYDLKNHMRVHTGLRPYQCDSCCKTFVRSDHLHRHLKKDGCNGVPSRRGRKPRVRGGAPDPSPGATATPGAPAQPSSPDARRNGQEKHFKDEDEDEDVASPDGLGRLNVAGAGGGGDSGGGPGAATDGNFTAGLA
UniProt O00258: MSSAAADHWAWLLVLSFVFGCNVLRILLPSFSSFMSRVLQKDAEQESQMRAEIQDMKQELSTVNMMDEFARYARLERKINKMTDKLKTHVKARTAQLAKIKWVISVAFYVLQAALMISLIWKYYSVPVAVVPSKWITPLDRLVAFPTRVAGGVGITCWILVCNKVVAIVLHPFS
UniProt Q9Y2Z4: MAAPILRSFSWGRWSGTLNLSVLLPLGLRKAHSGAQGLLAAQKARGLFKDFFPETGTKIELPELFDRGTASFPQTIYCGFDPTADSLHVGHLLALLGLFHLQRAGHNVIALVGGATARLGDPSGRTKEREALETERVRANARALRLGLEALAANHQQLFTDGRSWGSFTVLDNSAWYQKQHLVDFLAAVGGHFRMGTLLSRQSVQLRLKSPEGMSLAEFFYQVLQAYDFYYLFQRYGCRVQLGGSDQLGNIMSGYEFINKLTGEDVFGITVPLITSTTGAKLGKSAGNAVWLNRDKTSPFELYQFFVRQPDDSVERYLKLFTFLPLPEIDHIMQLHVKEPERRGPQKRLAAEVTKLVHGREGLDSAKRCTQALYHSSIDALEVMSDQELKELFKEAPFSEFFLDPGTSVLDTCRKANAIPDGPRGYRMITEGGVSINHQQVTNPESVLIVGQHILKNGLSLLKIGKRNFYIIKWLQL

compound: COc1ccc(Cn2ccc3cc(C)c(C(=O)NO)cc32)cc1; assay: dose-dependent thermal stabilisation call (2D-TPP, DLPTP, 10% FDR) (binary (1 = stabilised)); higher = stabilised by the compound; conditions: system: HL-60 intact cells; concentration range 0.04-10 µM
Protocol: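 2D thermal proteome profiling in intact HL-60 cells treated with BRD-3811 (0, 0.04, 0.29, 2, 10 uM) for 90 min at 37 C, then heated 3 min at one of 12 temperatures (42-63.9 C). Soluble protein was quantified by TMT10 MS. The value is the DLPTP call of the paper: dose-dependent thermal stabilisation over all temperatures at 10% FDR (F-test of a dose-response against a flat model); one experiment, one call per tested protein.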

**Q.** ZNF638 (UniProt Q14966) was tested. Which “dose-dependent thermal stabilisation call” value did it give?
**A.** inactive: 0

**Q.** How did the “dose-dependent thermal stabilisation call” value turn out when ZNF259 (UniProt O75312) was run?
**A.** inactive: 0

**Q.** ZFP161 (UniProt O43829) was tested. Which “dose-dependent thermal stabilisation call” value did it give?
**A.** inactive: 0

**Q.** With YARS (UniProt P54577) as the target, how does the “dose-dependent thermal stabilisation call” value read?
**A.** inactive: 0

**Q.** For ZNF574 (UniProt Q6ZN55), which “dose-dependent thermal stabilisation call” value is on record?
**A.** inactive: 0

**Q.** For ZMYM1 (UniProt Q5SVZ6), which “dose-dependent thermal stabilisation call” value is on record?
**A.** inactive: 0

**Q.** For WDR55 (UniProt Q9H6Y2), which “dose-dependent thermal stabilisation call” value is on record?
**A.** inactive: 0

**Q.** With ZNHIT2 (UniProt Q9UHR6) as the target, how does the “dose-dependent thermal stabilisation call” value read?
**A.** inactive: 0

**Q.** How did the “dose-dependent thermal stabilisation call” value turn out when WDR47 (UniProt O94967) was run?
**A.** inactive: 0

**Q.** ZCCHC8 (UniProt Q6NZY4) was tested. Which “dose-dependent thermal stabilisation call” value did it give?
**A.** inactive: 0

**Q.** Which “dose-dependent thermal stabilisation call” value does the source give for ZFAND1 (UniProt Q8TCF1) here?
**A.** inactive: 0

**Q.** How did the “dose-dependent thermal stabilisation call” value turn out when ch-TOG was run?
**A.** inactive: 0

**Q.** For YLPM1 (UniProt P49750), which “dose-dependent thermal stabilisation call” value is on record?
**A.** inactive: 0

**Q.** For ZNHIT3 (UniProt Q15649), which “dose-dependent thermal stabilisation call” value is on record?
**A.** inactive: 0

**Q.** With ZNF622 (UniProt Q969S3) as the target, how does the “dose-dependent thermal stabilisation call” value read?
**A.** inactive: 0

**Q.** With ZNF384 (UniProt Q8TF68) as the target, how does the “dose-dependent thermal stabilisation call” value read?
**A.** inactive: 0

**Q.** For ZFYVE16 (UniProt Q7Z3T8), which “dose-dependent thermal stabilisation call” value is on record?
**A.** inactive: 0

**Q.** For ZBTB7A (UniProt O95365), which “dose-dependent thermal stabilisation call” value is on record?
**A.** inactive: 0

**Q.** WDR85 (UniProt Q9BTV6) was tested. Which “dose-dependent thermal stabilisation call” value did it give?
**A.** inactive: 0

**Q.** How did the “dose-dependent thermal stabilisation call” value turn out when ZNF512B (UniProt Q96KM6) was run?
**A.** inactive: 0

**Q.** WDR36 (UniProt Q8NI36) was tested. Which “dose-dependent thermal stabilisation call” value did it give?
**A.** inactive: 0

**Q.** With ZNF295 (UniProt Q9ULJ3) as the target, how does the “dose-dependent thermal stabilisation call” value read?
**A.** inactive: 0

**Q.** For YWHAE (UniProt P62258), which “dose-dependent thermal stabilisation call” value is on record?
**A.** inactive: 0

**Q.** For WRB (UniProt O00258), which “dose-dependent thermal stabilisation call” value is on record?
**A.** inactive: 0

**Q.** For ZNRF2 (UniProt Q8NHG8), which “dose-dependent thermal stabilisation call” value is on record?
**A.** inactive: 0

**Q.** Which “dose-dependent thermal stabilisation call” value does the source give for YARS2 (UniProt Q9Y2Z4) here?
**A.** inactive: 0

**Q.** Which “dose-dependent thermal stabilisation call” value does the source give for WDR62 (UniProt O43379) here?
**A.** inactive: 0

**Q.** Which “dose-dependent thermal stabilisation call” value does the source give for YKT6 (UniProt O15498) here?
**A.** inactive: 0

**Q.** Which “dose-dependent thermal stabilisation call” value does the source give for ZDHHC17 (UniProt Q8IUH5) here?
**A.** inactive: 0

**Q.** Which “dose-dependent thermal stabilisation call” value does the source give for ZBTB2 (UniProt Q8N680) here?
**A.** inactive: 0

**Q.** For ZFYVE20 (UniProt Q9H1K0), which “dose-dependent thermal stabilisation call” value is on record?
**A.** inactive: 0

**Q.** Which “dose-dependent thermal stabilisation call” value does the source give for ZNF277 (UniProt Q9NRM2) here?
**A.** inactive: 0

**Q.** Which “dose-dependent thermal stabilisation call” value does the source give for ZNF598 (UniProt Q86UK7) here?
**A.** inactive: 0

**Q.** For YTHDF2 (UniProt Q9Y5A9), which “dose-dependent thermal stabilisation call” value is on record?
**A.** inactive: 0

**Q.** WWC2 (UniProt Q6AWC2) was tested. Which “dose-dependent thermal stabilisation call” value did it give?
**A.** inactive: 0

**Q.** Which “dose-dependent thermal stabilisation call” value does the source give for XRN1 (UniProt Q8IZH2) here?
**A.** inactive: 0

**Q.** How did the “dose-dependent thermal stabilisation call” value turn out when WDR12 (UniProt Q9GZL7) was run?
**A.** inactive: 0

**Q.** With ZMYM4 (UniProt Q5VZL5) as the target, how does the “dose-dependent thermal stabilisation call” value read?
**A.** inactive: 0

**Q.** With ZBTB33 (UniProt Q86T24) as the target, how does the “dose-dependent thermal stabilisation call” value read?
**A.** inactive: 0

**Q.** How did the “dose-dependent thermal stabilisation call” value turn out when ZADH2 (UniProt Q8N4Q0) was run?
**A.** inactive: 0
